Measurements reported in PubChem BioAssay AID504786 (Drosophila RNAi Screening Center, 2011).
The deposit covers about 21,000 reagents; below is an unselected part of those that have a named target and a result. 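Primary screen; positive scores mean lost reporter signal, so the sign may be inverted from the usual convention.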 Names joined by + are all predicted targets of the reagent.

- Screen: 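Positive regulators of HIF-driven reporter output in Drosophila cells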 (primary screen)
- Cells: Drosophila S2 cells with a stable HIF luciferase reporter
- Reagents: long dsRNA against Drosophila genes, about 0.2 µg dsRNA per well of a 384-well plate
- Time to read-out: three days of knock-down, then 20 h of DFO before reading
- Conditions: desferrioxamine (DFO) at 100 µM, an iron chelator that mimics hypoxia, for 20 h
- Detection: 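Firefly luciferase driven by the mouse ldh-a hypoxia-response element, measured after 20 h of 100 µM DFO; z-scores per plate, higher means more signal lost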
- Direction: z-score: higher = stronger loss of HIF reporter signal

| Gene | amplicon | z-score, replicate 1 | z-score, replicate 2 | z-score, replicate 3 | z-score, replicate 4 |
| --- | --- | --- | --- | --- | --- |
| slmo + CG34179 | DRSC03143 | 0 | -0.3 | – | – |
| CG30428 | DRSC04041 | -0.2 | -0.2 | – | – |
| brk (brinker) | DRSC18745 | 0.3 | 0.8 | – | – |
| CG34286 | DRSC13372 | -0.6 | -0.1 | – | – |
| Vha26 (Vacuolar H[+]-ATPase 26kD subunit) | DRSC12371 | -0.2 | 0 | – | – |
| Noc2 (Nucleolar complex protein 2) | DRSC03165 | -0.1 | 0.9 | – | – |
| CG5715 | DRSC15860 | 0.2 | 0.2 | – | – |
| Rpt2 (Regulatory particle triple-A ATPase 2) | DRSC16799 | 8.1 | 5.8 | – | – |
| Or85d (Odorant receptor 85d) | DRSC16767 | -0.4 | -0.8 | – | – |
| Fdx2 (Ferredoxin 2) | DRSC08306 | -0.2 | -0.2 | – | – |
| CG9313 | DRSC04540 | 0.1 | -0.1 | – | – |
| CG42750 | DRSC02458 | -0.2 | 0.1 | 4.3 | 6.2 |
| CG42750 | DRSC03019 | 0.5 | -0.2 | – | – |
| CG42750 | DRSC03024 | -0.2 | 0.4 | – | – |
| Kah (Kahuli) | DRSC07887 | -0.4 | 0.3 | – | – |
| Kah (Kahuli) | DRSC08515 | -0.4 | 0.5 | – | – |
| Scm (Sex comb on midleg) | DRSC16853 | -0.4 | -0.9 | – | – |
| CG13040 | DRSC09921 | -0.2 | -0.3 | – | – |
| CG31267 | DRSC15748 | -0.1 | 0.1 | – | – |
| CG5104 | DRSC11765 | -0.2 | -0.5 | – | – |
| fy (fuzzy) | DRSC03533 | -0.2 | 0.1 | – | – |
| Sou (Souji) | DRSC04356 | -0.2 | 0.4 | – | – |
| Imp (IGF-II mRNA-binding protein) | DRSC18861 | -0.4 | -0.2 | – | – |
| Imp (IGF-II mRNA-binding protein) | DRSC20255 | 0 | -0.2 | – | – |
| Ssrp (Structure specific recognition protein) | DRSC04658 | 1.6 | 1.2 | – | – |
| Pura (Puratrophin-1-like) | DRSC08891 | -0.2 | 0 | – | – |
| Pura (Puratrophin-1-like) | DRSC10862 | -0.3 | -0.4 | – | – |
| Pura (Puratrophin-1-like) | DRSC10864 | -0.3 | -0.4 | – | – |
| Pura (Puratrophin-1-like) | DRSC10865 | 0.1 | -0.5 | – | – |
| Pura (Puratrophin-1-like) | DRSC10866 | -0.2 | -0.4 | – | – |
| mbt (mushroom bodies tiny) | DRSC20348 | -0.3 | -0.5 | – | – |
| Npc2h (Niemann-Pick type C-2h) | DRSC14297 | -0.4 | -0.4 | – | – |
| CG8043 | DRSC16368 | -0.4 | -0.1 | – | – |
| Kap-alpha1 (karyopherin alpha1) | DRSC11356 | -0.3 | 0.9 | – | – |
| flfl (falafel) | DRSC16474 | -0.6 | -1.2 | – | – |
| CG13325 | DRSC06362 | -0.1 | 1.5 | – | – |
| SMC6 (Structural maintenance of chromosomes 6) | DRSC15829 | -0.4 | -0.4 | – | – |
| Ir52b (Ionotropic receptor 52b) | DRSC06263 | -0.1 | -0.4 | – | – |
| CG11629 | DRSC03695 | -0.3 | -0.3 | – | – |
| CG8289 | DRSC20101 | -0.3 | -0.5 | – | – |
| CG43861 | DRSC02308 | -0.3 | -0.1 | – | – |
| CG5335 | DRSC06931 | -0.3 | 0.2 | – | – |
| cpa (capping protein alpha) | DRSC04080 | -0.1 | 0.5 | – | – |
| Tsp42A (Tetraspanin 42A) | DRSC04862 | -0.4 | 0 | – | – |
| DCTN5-p25 (Dynactin 5, p25 subunit) | DRSC03525 | -0.2 | 0.1 | – | – |
| CG16984 | DRSC08500 | -0.3 | -0.2 | – | – |
| Alp6 (Alkaline phosphatase 6) | DRSC06710 | -0.4 | 1.4 | – | – |
| Bace (beta-site APP-cleaving enzyme) | DRSC02197 | -0.6 | 0.5 | – | – |
| eIF4B (eukaryotic translation initiation factor 4B) | DRSC20983 | -0.4 | -0.6 | – | – |
| HDAC11 (Histone deacetylase 11) | DRSC14280 | 0 | 0.2 | – | – |
| CG18539 | DRSC06766 | -0.4 | -0.8 | – | – |
| opm (opossum) | DRSC20141 | -0.4 | -1 | – | – |
| CG13299 | DRSC09973 | -0.4 | -0.7 | – | – |
| H2.0 (Homeodomain protein 2.0) | DRSC03340 | -0.5 | -0.3 | -0.1 | -0.3 |
| CG13631 | DRSC14632 | -0.3 | -0.4 | – | – |
| Daxx (Daxx-like protein) | DRSC03255 | -0.1 | -0.2 | – | – |
| CG6244 | DRSC10609 | -0.2 | -0.4 | – | – |
| ppk20 (pickpocket 20) | DRSC16260 | -0.4 | -0.3 | – | – |
| CG15629 | DRSC00464 | -0.3 | -0.1 | – | – |
| Doa (Darkener of apricot) | DRSC13892 | 0.1 | -0.5 | – | – |
| Doa (Darkener of apricot) | DRSC13893 | -0.2 | -0.1 | – | – |
| Doa (Darkener of apricot) | DRSC13895 | -0.2 | -0.3 | – | – |
| Doa (Darkener of apricot) | DRSC13896 | 0 | -0.5 | – | – |
| Doa (Darkener of apricot) | DRSC13897 | 0 | 0.1 | – | – |
| Doa (Darkener of apricot) | DRSC16650 | 0.2 | 0.2 | – | – |
| Isha (Insulator su(Hw) mRNA adaptor) | DRSC04456 | 4.1 | 4.1 | – | – |
| twin | DRSC15259 | -0.2 | -0.4 | – | – |
| twin | DRSC15831 | -0.4 | -0.6 | – | – |
| CG14490 | DRSC06461 | -0.2 | -0.5 | – | – |
| CG2574 | DRSC19862 | -0.1 | 1.7 | – | – |
| TwdlQ (TweedleQ) | DRSC14745 | 0 | -0.6 | – | – |
| Hml (Hemolectin) | DRSC11183 | -0.3 | -0.1 | – | – |
| CG9757 | DRSC16557 | -0.3 | -0.9 | – | – |
| Bap170 (Brahma associated protein 170kD) | DRSC04964 | -0.2 | 0 | – | – |
| CG8569 | DRSC07214 | -0.1 | -0.6 | – | – |
| Stt3B | DRSC16781 | -0.1 | 0.7 | – | – |
| verm (vermiform) | DRSC11038 | -0.3 | -0.4 | – | – |
| CG3520 | DRSC04383 | -0.3 | -0.4 | – | – |
| Tom20 (Translocase of outer membrane 20) | DRSC10899 | -0.2 | -0.3 | – | – |
| CG7333 | DRSC16229 | -1.3 | 0.4 | – | – |
| Cyp6t1 (Cytochrome P450 6t1) | DRSC20564 | -0.6 | -0.1 | – | – |
| CR42532 (pseudo) | DRSC06713 | -0.3 | -0.3 | – | – |
| CG9636 | DRSC16529 | -0.4 | -0.6 | – | – |

6 neighbouring reagents from above, quoted:
| Gene | amplicon | z-score, replicate 1 | z-score, replicate 2 | z-score, replicate 3 | z-score, replicate 4 |
| --- | --- | --- | --- | --- | --- |
| CG31267 | DRSC15748 | -0.1 | 0.1 | – | – |
| CG5104 | DRSC11765 | -0.2 | -0.5 | – | – |
| fy (fuzzy) | DRSC03533 | -0.2 | 0.1 | – | – |
| Sou (Souji) | DRSC04356 | -0.2 | 0.4 | – | – |
| Imp (IGF-II mRNA-binding protein) | DRSC18861 | -0.4 | -0.2 | – | – |
| Imp (IGF-II mRNA-binding protein) | DRSC20255 | 0 | -0.2 | – | – |
